{"source": "PubChem BioAssay AID1259308 (NCATS, 2017)", "purpose": "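Knock-downs that increase output of a recombinant reporter protein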 (primary screen)", "system": "human HEK293 embryonic kidney cells stably expressing firefly luciferase (HEK-CMV-Luc2-Hygro)", "reagent": "single siRNA against human genes, 0.8 pmol siRNA per well", "time to read-out": "72 h", "measurement": "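Reporter luminescence and viable-cell signal on separate replicate plates, given as percent of non-targeting control and median/MAD z-scores, plus per-cell luciferase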", "scale": "total luciferase, z-score: higher = more reporter protein produced", "rule for the call": "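An siRNA counts as active if its total luciferase robust z-score exceeds 3; genes with two or more such siRNAs out of three were retested with fresh siRNAs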", "calls": "active = raised luciferase; inactive = no rise", "note": "The deposit covers about 59,000 reagents; shown is a part drawn at random. About 1,510 of them (2.6%) were called active. 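Calls use total luciferase alone and ignore viability, so some active siRNAs may act by altering cell number.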 Entries without a mark were called inactive. The numbers tell different reagents against one gene apart. Further read-outs or replicates are left out here."}
{"gene symbol":"FOXO1 (GeneID 2308)","siRNA no.":1,"total luciferase, z-score":-0.00929}
{"gene symbol":"FOXO1 (GeneID 2308)","siRNA no.":2,"total luciferase, z-score":1.41}
{"gene symbol":"FOXO1 (GeneID 2308)","siRNA no.":3,"total luciferase, z-score":1.33}
{"gene symbol":"MNAT1 (GeneID 4331)","siRNA no.":1,"total luciferase, z-score":-0.131}
{"gene symbol":"MNAT1 (GeneID 4331)","siRNA no.":2,"total luciferase, z-score":-0.594}
{"gene symbol":"MNAT1 (GeneID 4331)","siRNA no.":3,"total luciferase, z-score":1.89}
{"gene symbol":"VEGFC (GeneID 7424)","siRNA no.":1,"total luciferase, z-score":1.03}
{"gene symbol":"VEGFC (GeneID 7424)","siRNA no.":2,"total luciferase, z-score":-0.777}
{"gene symbol":"VEGFC (GeneID 7424)","siRNA no.":3,"total luciferase, z-score":0.18}
{"gene symbol":"TCTN1 (GeneID 79600)","siRNA no.":1,"total luciferase, z-score":-0.0305}
{"gene symbol":"TCTN1 (GeneID 79600)","siRNA no.":2,"total luciferase, z-score":0.457}
{"gene symbol":"TCTN1 (GeneID 79600)","siRNA no.":3,"total luciferase, z-score":-0.0246}
{"gene symbol":"CCR7 (GeneID 1236)","siRNA no.":1,"total luciferase, z-score":-1.17}
{"gene symbol":"CCR7 (GeneID 1236)","siRNA no.":2,"total luciferase, z-score":0.0771}
{"gene symbol":"CCR7 (GeneID 1236)","siRNA no.":3,"total luciferase, z-score":-0.726}
{"gene symbol":"CHRDL1 (GeneID 91851)","siRNA no.":1,"total luciferase, z-score":0.718}
{"gene symbol":"CHRDL1 (GeneID 91851)","siRNA no.":2,"total luciferase, z-score":-0.0567}
{"gene symbol":"CHRDL1 (GeneID 91851)","siRNA no.":3,"total luciferase, z-score":-2.12}

Not a retest: entries from further up.
{"gene symbol":"FOXO1 (GeneID 2308)","siRNA no.":3,"total luciferase, z-score":1.33}
{"gene symbol":"MNAT1 (GeneID 4331)","siRNA no.":1,"total luciferase, z-score":-0.131}
{"gene symbol":"MNAT1 (GeneID 4331)","siRNA no.":2,"total luciferase, z-score":-0.594}
{"gene symbol":"MNAT1 (GeneID 4331)","siRNA no.":3,"total luciferase, z-score":1.89}

Further records follow.
{"gene symbol":"IKZF5 (GeneID 64376)","siRNA no.":1,"total luciferase, z-score":0.907}
{"gene symbol":"IKZF5 (GeneID 64376)","siRNA no.":2,"total luciferase, z-score":-0.822}
{"gene symbol":"IKZF5 (GeneID 64376)","siRNA no.":3,"total luciferase, z-score":0.529}
{"gene symbol":"EFEMP1 (GeneID 2202)","siRNA no.":1,"total luciferase, z-score":-0.0783}
{"gene symbol":"EFEMP1 (GeneID 2202)","siRNA no.":2,"total luciferase, z-score":-1.2}
{"gene symbol":"EFEMP1 (GeneID 2202)","siRNA no.":3,"total luciferase, z-score":-0.137}
{"gene symbol":"CDS2 (GeneID 8760)","siRNA no.":1,"total luciferase, z-score":0.116}
{"gene symbol":"CDS2 (GeneID 8760)","siRNA no.":2,"total luciferase, z-score":1.23}
{"gene symbol":"CDS2 (GeneID 8760)","siRNA no.":3,"total luciferase, z-score":-0.1}
{"gene symbol":"ATP6V1C2 (GeneID 245973)","siRNA no.":1,"total luciferase, z-score":0.193}
{"gene symbol":"ATP6V1C2 (GeneID 245973)","siRNA no.":2,"total luciferase, z-score":-0.429}
{"gene symbol":"ATP6V1C2 (GeneID 245973)","siRNA no.":3,"total luciferase, z-score":-1.46}
{"gene symbol":"YWHAB (GeneID 7529)","siRNA no.":1,"total luciferase, z-score":0.521}
{"gene symbol":"YWHAB (GeneID 7529)","siRNA no.":2,"total luciferase, z-score":-0.485}
{"gene symbol":"YWHAB (GeneID 7529)","siRNA no.":3,"total luciferase, z-score":-0.379}
{"gene symbol":"AMPD1 (GeneID 270)","siRNA no.":1,"total luciferase, z-score":0.366}
{"gene symbol":"AMPD1 (GeneID 270)","siRNA no.":2,"total luciferase, z-score":0.818}
{"gene symbol":"AMPD1 (GeneID 270)","siRNA no.":3,"total luciferase, z-score":-1.53}
{"gene symbol":"CHEK1 (GeneID 1111)","siRNA no.":1,"total luciferase, z-score":-0.144}
{"gene symbol":"CHEK1 (GeneID 1111)","siRNA no.":2,"total luciferase, z-score":-1.18}
{"gene symbol":"CHEK1 (GeneID 1111)","siRNA no.":3,"total luciferase, z-score":-0.968}
{"gene symbol":"SNCB (GeneID 6620)","siRNA no.":1,"total luciferase, z-score":-0.0415}
{"gene symbol":"SNCB (GeneID 6620)","siRNA no.":2,"total luciferase, z-score":-0.356}
{"gene symbol":"SNCB (GeneID 6620)","siRNA no.":3,"total luciferase, z-score":-1.37}
